Assay results published in the supplement of paper PMC3334620.
Whole data set: some 33,000 sequences, median “E-score (-0.5 to 0.5)” near -0.016, cut for the highest 2% near 0.3. The list shows a part of the results.

Each sequence was assayed against T1, Yer184c (UniProt P39961) (assay: PBM E-score (8-mer binding enrichment) (E-score (-0.5 to 0.5)); higher = stronger / more preferred TF binding). Details: protein concentration: 100 nM; construct: GST-full length.
T1 sequence: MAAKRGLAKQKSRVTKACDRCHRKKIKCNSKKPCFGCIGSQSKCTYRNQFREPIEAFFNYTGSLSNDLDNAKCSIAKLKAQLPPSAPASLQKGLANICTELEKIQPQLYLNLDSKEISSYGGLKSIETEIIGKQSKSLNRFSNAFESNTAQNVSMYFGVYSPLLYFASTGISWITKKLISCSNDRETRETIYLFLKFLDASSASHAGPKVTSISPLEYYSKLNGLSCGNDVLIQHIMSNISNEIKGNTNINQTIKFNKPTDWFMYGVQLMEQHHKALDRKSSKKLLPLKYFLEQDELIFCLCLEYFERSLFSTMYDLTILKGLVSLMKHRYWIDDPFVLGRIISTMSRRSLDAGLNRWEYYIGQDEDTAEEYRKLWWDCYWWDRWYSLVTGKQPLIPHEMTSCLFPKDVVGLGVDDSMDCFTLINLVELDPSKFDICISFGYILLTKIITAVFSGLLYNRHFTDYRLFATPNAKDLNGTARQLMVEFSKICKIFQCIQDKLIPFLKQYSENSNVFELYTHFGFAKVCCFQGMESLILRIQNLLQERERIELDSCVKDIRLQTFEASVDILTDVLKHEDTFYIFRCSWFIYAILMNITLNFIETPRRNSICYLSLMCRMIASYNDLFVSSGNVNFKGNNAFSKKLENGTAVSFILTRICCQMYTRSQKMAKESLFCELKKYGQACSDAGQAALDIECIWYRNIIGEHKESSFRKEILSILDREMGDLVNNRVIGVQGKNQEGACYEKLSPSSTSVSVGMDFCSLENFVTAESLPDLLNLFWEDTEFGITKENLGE
Procedure: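 Universal 'all 10-mer' protein binding microarrays (Agilent AMADID 015681) probed with GST-tagged S. cerevisiae TFs (full-length or DBD) made by in vitro transcription/translation (PURExpress), about 100-200 nM. Bound TF was detected with fluorescent anti-GST. Each ungapped 8-mer (which stands for itself and its reverse complement) is scored by the PBM enrichment score (E-score), a modified Wilcoxon-Mann-Whitney statistic from -0.5 to +0.5, computed with the Universal PBM Analysis Suite. Scale: above 0.35 generally sequence-specific binding.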

First: ATTGCGAA
Second: TGGAAGAA
The “PBM E-score” value of the first is lower: 0.015 for the first, 0.184 for the second.

Compared with ATCATGCC, ACTCTACC is lower in “PBM E-score” value: 0.0169 for the first, -0.0949 for the second.

Going from GGTGGTAA to CAAAAGTG, the “PBM E-score” value falls from 0.156 to -0.154.

First: CGCTGTCC
Second: GAGACTCC
The “PBM E-score” value of the first is higher: 0.016 for the first, -0.103 for the second.

First: AGGAGAGA
Second: GTCAAGTA
The “PBM E-score” value of the first is higher: -0.122 for the first, -0.187 for the second.

Compared with CACTGCGC, AAAGAGTG is lower in “PBM E-score” value: -0.162 for the first, -0.198 for the second.

Going from AGTAAAAG to GTCCACTA, the “PBM E-score” value falls from 0.143 to -0.132.

Going from CGAAAGTC to CCAGACCG, the “PBM E-score” value rises from 0.0707 to 0.0882.

First: CATCCACC
Second: GTAAGAAA
The “PBM E-score” value of the first is lower: -0.0714 for the first, -0.0375 for the second.

Going from CATAACCA to ATTAGTGA, the “PBM E-score” value rises from -0.0445 to 0.0684.

First: GTGAGTCA
Second: AACGAGTC
The “PBM E-score” value of the first is lower: -0.194 for the first, -0.0777 for the second.

Compared with AGCCTCGC, AGCATTGG is higher in “PBM E-score” value: -0.228 for the first, -0.225 for the second.

Going from AGCCCGGC to CCCACAGC, the “PBM E-score” value falls from 0.309 to -0.218.

Compared with AAAGTACT, ATAATTAG is higher in “PBM E-score” value: -0.0242 for the first, 0.203 for the second.

Compared with ACCATGTG, AAAGCGTC is higher in “PBM E-score” value: -0.212 for the first, -0.0236 for the second.

Compared with TCCCATCA, GCGTGGAA is higher in “PBM E-score” value: -0.266 for the first, -0.146 for the second.

First: GTACAAAC
Second: GGCATGTA
The “PBM E-score” value of the first is higher: 0.0283 for the first, -0.0945 for the second.

Compared with TATGGTAA, CATGCGTC is lower in “PBM E-score” value: 0.116 for the first, -0.166 for the second.

First: ATATCTCG
Second: AGCCGAGC
The “PBM E-score” value of the first is lower: 0.13 for the first, 0.318 for the second.

First: GAGCGAAC
Second: CGGTATGA
The “PBM E-score” value of the first is lower: -0.141 for the first, 0.175 for the second.

First: GAGCGTCA
Second: TCAATACA
The “PBM E-score” value of the first is lower: -0.142 for the first, 0.0627 for the second.

Going from AATGAAAG to AAGAGTCA, the “PBM E-score” value falls from 0.0204 to -0.0511.

First: AGCGAGTG
Second: GTGTGCTA
The “PBM E-score” value of the first is higher: 0.0192 for the first, -0.0363 for the second.

Compared with ATAACACC, AGTCGACG is higher in “PBM E-score” value: 0.0384 for the first, 0.195 for the second.

First: ATTAACTC
Second: TGGCGCAA
The “PBM E-score” value of the first is higher: 0.225 for the first, -0.0859 for the second.

Going from GCCGTGAA to AGAGCACC, the “PBM E-score” value falls from 0.174 to -0.286.

First: GGTGTCTA
Second: AGGGTAGC
The “PBM E-score” value of the first is higher: 0.0247 for the first, -0.241 for the second.

First: GGGTGAAA
Second: AGATTAAG
The “PBM E-score” value of the first is lower: 0.123 for the first, 0.133 for the second.

First: GCACGTCC
Second: CGCGCGCA
The “PBM E-score” value of the first is lower: -0.0709 for the first, 0.221 for the second.

Going from ATCCTCGC to TGTTCTAA, the “PBM E-score” value rises from -0.127 to 0.0972.

First: AACGGGAC
Second: CACCCCGA
The “PBM E-score” value of the first is lower: -0.129 for the first, -0.0375 for the second.

First: ACTATACC
Second: CGTACGGA
The “PBM E-score” value of the first is lower: 0.0161 for the first, 0.131 for the second.

First: CCTAGAGG
Second: GTTGACCA
The “PBM E-score” value of the first is lower: -0.269 for the first, -0.0672 for the second.

Going from AAGTTACT to ACCCGGGC, the “PBM E-score” value rises from 0.0522 to 0.233.

Going from ATAAGCAG to AATATAAC, the “PBM E-score” value rises from 0.00872 to 0.18.

Compared with AAATGGTT, CGCCCGAC is higher in “PBM E-score” value: -0.0168 for the first, 0.102 for the second.

First: ACACGAGA
Second: CAGTCCAA
The “PBM E-score” value of the first is higher: -0.102 for the first, -0.188 for the second.

First: ATGGGCCA
Second: CTAGTACC
The “PBM E-score” value of the first is higher: -0.0849 for the first, -0.198 for the second.

First: GTAGGATA
Second: ACGAGAAG
The “PBM E-score” value of the first is higher: -0.0565 for the first, -0.133 for the second.

First: AATCCACG
Second: TAAGCATA
The “PBM E-score” value of the first is lower: 0.00561 for the first, 0.0594 for the second.

First: ATGAAGTC
Second: CTACTCGA
The “PBM E-score” value of the first is lower: -0.0525 for the first, 0.088 for the second.

Compared with TCACCGAA, AATTAGCA is lower in “PBM E-score” value: 0.26 for the first, 0.236 for the second.

Going from ACGTGATA to AAAAAAGA, the “PBM E-score” value rises from -0.13 to 0.0574.

First: AGACAGCA
Second: CATACTCG
The “PBM E-score” value of the first is higher: 0.0789 for the first, -0.0191 for the second.

Going from ACCGAAAG to AAGTGTTA, the “PBM E-score” value falls from 0.181 to 0.0223.

Compared with TACTACAA, AGCGGACA is lower in “PBM E-score” value: 0.191 for the first, 0.0828 for the second.

Going from ACATAAAC to AATAAACC, the “PBM E-score” value falls from 0.217 to 0.128.

Compared with ATTAACGC, TCGCCAGA is higher in “PBM E-score” value: -0.0751 for the first, -0.068 for the second.

First: TCCGTCAA
Second: ATAACTTG
The “PBM E-score” value of the first is higher: 0.215 for the first, -0.0817 for the second.

Going from ATTTACAA to AATTTCAG, the “PBM E-score” value falls from 0.117 to -0.00746.

Compared with AATAACCG, CCTTGCCC is lower in “PBM E-score” value: 0.0925 for the first, 0.0186 for the second.

Going from AGCCAAGG to AAAACTTA, the “PBM E-score” value rises from -0.16 to 0.245.

Compared with CTAGTCGC, CAGGAACA is higher in “PBM E-score” value: -0.207 for the first, -0.0366 for the second.

Compared with CTAGACAA, AACTAGCC is lower in “PBM E-score” value: 0.0501 for the first, -0.0863 for the second.

Going from GAAGCGGC to GACGTGAA, the “PBM E-score” value falls from 0.049 to 0.00736.

First: AGGGGGGC
Second: ACGGCCCC
The “PBM E-score” value of the first is lower: -0.372 for the first, -0.314 for the second.

Compared with ACAGCAAG, ATGATGCG is lower in “PBM E-score” value: 0.0325 for the first, -0.0629 for the second.

First: CCGCGCCG
Second: CCCGAGTC
The “PBM E-score” value of the first is higher: 0.291 for the first, 0.0466 for the second.

First: CAACGTGA
Second: CACACCAC
The “PBM E-score” value of the first is lower: -0.209 for the first, -0.128 for the second.

First: AATCCTTC
Second: TACGTTCA
The “PBM E-score” value of the first is lower: -0.0992 for the first, 0.0776 for the second.

Going from GTTTGTTA to AAACTGCG, the “PBM E-score” value falls from 0.298 to -0.0381.

First: ATGCGCGG
Second: ATGGCAGA
The “PBM E-score” value of the first is higher: 0.049 for the first, -0.0452 for the second.

Compared with ATTGATCG, CCATCTTC is higher in “PBM E-score” value: 0.14 for the first, 0.173 for the second.

Going from TCACAGGA to TACATATA, the “PBM E-score” value rises from -0.0252 to 0.249.

Going from AGACTAGA to TGTTGTAA, the “PBM E-score” value rises from -0.211 to 0.148.

Going from GGTCCGAA to ACACCAAC, the “PBM E-score” value falls from 0.303 to -0.122.

Compared with GCGGAACC, ACGCTACA is lower in “PBM E-score” value: 0.268 for the first, -0.123 for the second.

Compared with CGTCCGTA, ACCTAGAT is lower in “PBM E-score” value: 0.0308 for the first, -0.243 for the second.

Compared with CTTGTCCA, CAACAATC is higher in “PBM E-score” value: -0.0775 for the first, 0.114 for the second.

First: CTTATTTA
Second: TAGGCCGA
The “PBM E-score” value of the first is lower: -0.0503 for the first, 0.167 for the second.

Compared with CTGTTTTA, CAACATGC is lower in “PBM E-score” value: 0.0909 for the first, -0.059 for the second.

Going from CGAGTGGA to AAAAGGTC, the “PBM E-score” value falls from -0.0248 to -0.0978.

First: GCACCGGA
Second: CCAATACC
The “PBM E-score” value of the first is higher: 0.33 for the first, -0.272 for the second.

First: CACGTACG
Second: TGAGAGAA
The “PBM E-score” value of the first is lower: -0.267 for the first, 0.0681 for the second.

Compared with AGACGGTC, CCCTCTAA is lower in “PBM E-score” value: -0.0941 for the first, -0.191 for the second.

Compared with CAACTCGC, ATAGCGAA is higher in “PBM E-score” value: -0.00833 for the first, 0.178 for the second.

Going from GTCACAGA to AACCCCTC, the “PBM E-score” value falls from -0.129 to -0.327.

Going from CCGTAGAC to ACCTTCCT, the “PBM E-score” value falls from 0.108 to -0.275.

Going from CAATAACG to GTATTGCA, the “PBM E-score” value falls from 0.182 to -0.128.

Going from TATATTCA to CCAAGTGG, the “PBM E-score” value falls from 0.195 to -0.0229.

First: TCTGTGAA
Second: CCCGATAA
The “PBM E-score” value of the first is higher: 0.197 for the first, -0.0514 for the second.

Going from TAGTACCA to CAGTTATA, the “PBM E-score” value rises from -0.148 to 0.0323.

First: CGCTCGGA
Second: ATCCAAAC
The “PBM E-score” value of the first is higher: 0.299 for the first, 0.0338 for the second.

Compared with CGGCGCGC, AACCAGCC is lower in “PBM E-score” value: 0.275 for the first, 0.162 for the second.

Going from AGATTCAC to CAAAAAAA, the “PBM E-score” value rises from -0.157 to 0.247.

Compared with CATCAGCG, TATATGGA is lower in “PBM E-score” value: -0.0203 for the first, -0.146 for the second.
